These are yes or no findings as the source states them, for the method shown.
Target: T1, mammalian-derived and heparan-sulfated recombinant GPC4-WT (soluble, lacking a GPI-anchor) (human) (UniProt O75487)
T1 sequence (chain, heparan sulfate chains): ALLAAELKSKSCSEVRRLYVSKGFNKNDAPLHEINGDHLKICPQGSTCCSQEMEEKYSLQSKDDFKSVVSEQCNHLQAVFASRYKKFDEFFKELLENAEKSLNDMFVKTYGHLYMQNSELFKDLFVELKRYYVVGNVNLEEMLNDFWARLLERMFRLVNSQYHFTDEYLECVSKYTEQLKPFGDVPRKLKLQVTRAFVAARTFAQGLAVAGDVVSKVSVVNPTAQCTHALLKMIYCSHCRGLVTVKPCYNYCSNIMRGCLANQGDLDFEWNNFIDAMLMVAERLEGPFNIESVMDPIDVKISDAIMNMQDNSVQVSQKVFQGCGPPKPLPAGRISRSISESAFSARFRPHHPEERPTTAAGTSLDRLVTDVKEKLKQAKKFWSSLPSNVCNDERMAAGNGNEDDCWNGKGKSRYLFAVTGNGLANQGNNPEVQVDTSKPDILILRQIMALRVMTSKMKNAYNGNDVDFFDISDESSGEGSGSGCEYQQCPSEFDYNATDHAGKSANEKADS
Experiment: cross-linking; lysine crosslinking with disuccinimidyl sulfoxide (DSSO) of recombinant purified proteins in solution; both purified

Sequences of proteins named here, by UniProt entry; tags and fusion partners are left off. Residues count along the entry.
UniProt P02649, residues 19-317: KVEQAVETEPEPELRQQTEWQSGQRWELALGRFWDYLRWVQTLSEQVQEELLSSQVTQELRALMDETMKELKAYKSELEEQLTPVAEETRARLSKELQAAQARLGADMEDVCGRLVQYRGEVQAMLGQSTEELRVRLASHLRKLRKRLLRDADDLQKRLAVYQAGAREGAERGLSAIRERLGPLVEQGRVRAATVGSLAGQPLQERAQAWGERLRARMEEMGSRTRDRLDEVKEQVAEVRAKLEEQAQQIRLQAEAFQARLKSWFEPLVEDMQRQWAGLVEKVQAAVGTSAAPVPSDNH

binding: no binding
Substance: human his-tagged full-length APOE3, mammalian-derived, lipidated (from UniProt P02649 19-317)
